{"source": "PubChem BioAssay AID743458 (Peter MacCallum Cancer Centre, 2014)", "test": "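Retest earlier hits with independent siRNAs per gene for restoring vorinostat sensitivity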 (follow-up of hits)", "system": "human HCT116-VR colon cancer cells made resistant to vorinostat", "reagent": "single siRNA or pool against human genes, 25 nM per single siRNA", "duration": "about 72 h after transfection, including 24 h of drug", "treatment": "vorinostat, 2.5 µM final, for 24 h", "read-out": "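Cell viability by fluorescence and apoptosis by caspase 3/7 luminescence under vorinostat, background-corrected, averaged across two plate copies and given as fold change versus mock transfection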", "reading the numbers": "viability relative to mock: higher = more living cells than mock; caspase activity relative to mock: higher = more apoptosis than mock", "call rule": "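Active means a reduced-viability or caspase-activation class, anything else inactive; classes could only be given to wells that looked healthy when left untreated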", "note": "The deposit covers about 1,800 reagents; this is an unselected part. 732 of all reagents (41%) were called active. 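Calls are per siRNA reagent; a gene was deemed confirmed only if most of its four siRNAs scored.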 A number with no mark means an inactive call. The numbers tell different reagents against one gene apart."}
{"target": "SMG1", "reagent no.": 1, "viability relative to mock": 0.62, "caspase activity relative to mock": 2.42, "viability hit class": "no change", "caspase hit class": "no change"}
{"target": "SMG1", "reagent no.": 2, "viability relative to mock": "0.43 (active)", "caspase activity relative to mock": 1.81, "viability hit class": "reduced viability", "caspase hit class": "no change"}
{"target": "SMG1", "reagent no.": 3, "viability relative to mock": 0.41, "caspase activity relative to mock": 5.32, "viability hit class": "no change", "caspase hit class": "no change"}
{"target": "SMG1", "reagent no.": 4, "viability relative to mock": "0.77 (active)", "caspase activity relative to mock": 3.67, "viability hit class": "no change", "caspase hit class": "caspase activation"}
{"target": "PUF60", "reagent no.": 1, "viability relative to mock": "0.6 (active)", "caspase activity relative to mock": 5.48, "viability hit class": "no change", "caspase hit class": "caspase activation"}
{"target": "PUF60", "reagent no.": 2, "viability relative to mock": "0.52 (active)", "caspase activity relative to mock": 4.8, "viability hit class": "reduced viability", "caspase hit class": "caspase activation"}
{"target": "PUF60", "reagent no.": 3, "viability relative to mock": "0.7 (active)", "caspase activity relative to mock": 5.32, "viability hit class": "no change", "caspase hit class": "caspase activation"}
{"target": "PUF60", "reagent no.": 4, "viability relative to mock": 1, "caspase activity relative to mock": 2.04, "viability hit class": "no change", "caspase hit class": "no change"}
{"target": "PUF60", "reagent no.": 5, "viability relative to mock": "0.7 (active)", "caspase activity relative to mock": 6.27, "viability hit class": "no change", "caspase hit class": "caspase activation"}
{"target": "HYKK", "reagent no.": 1, "viability relative to mock": 1.06, "caspase activity relative to mock": 1.86, "viability hit class": "no change", "caspase hit class": "no change"}
{"target": "HYKK", "reagent no.": 2, "viability relative to mock": 0.94, "caspase activity relative to mock": 0.96, "viability hit class": "no change", "caspase hit class": "no change"}
{"target": "HYKK", "reagent no.": 3, "viability relative to mock": "0.24 (active)", "caspase activity relative to mock": 3.52, "viability hit class": "reduced viability", "caspase hit class": "caspase activation"}
{"target": "HYKK", "reagent no.": 4, "viability relative to mock": "0.56 (active)", "caspase activity relative to mock": 0.9, "viability hit class": "reduced viability", "caspase hit class": "no change"}

3 entries from above, reformatted.
HYKK #2
- viability relative to mock: 0.94
- caspase activity relative to mock: 0.96
- viability hit class: no change
- caspase hit class: no change

HYKK #3
- viability relative to mock: 0.24 (active)
- caspase activity relative to mock: 3.52
- viability hit class: reduced viability
- caspase hit class: caspase activation

HYKK #4
- viability relative to mock: 0.56 (active)
- caspase activity relative to mock: 0.9
- viability hit class: reduced viability
- caspase hit class: no change

Additional entries:
{"target": "GPR12", "reagent no.": 1, "viability relative to mock": "0.54 (active)", "caspase activity relative to mock": 1.8, "viability hit class": "reduced viability", "caspase hit class": "no change"}
{"target": "GPR12", "reagent no.": 2, "viability relative to mock": 0.82, "caspase activity relative to mock": 1.24, "viability hit class": "no change", "caspase hit class": "no change"}
{"target": "GPR12", "reagent no.": 3, "viability relative to mock": 0.84, "caspase activity relative to mock": 0.94, "viability hit class": "no change", "caspase hit class": "no change"}
{"target": "GPR12", "reagent no.": 4, "viability relative to mock": 0.57, "caspase activity relative to mock": 2.21, "viability hit class": "no change", "caspase hit class": "no change"}
{"target": "PPP4R4", "reagent no.": 1, "viability relative to mock": 1.08, "caspase activity relative to mock": 1.56, "viability hit class": "no change", "caspase hit class": "no change"}
{"target": "PPP4R4", "reagent no.": 2, "viability relative to mock": "0.22 (active)", "caspase activity relative to mock": 2.5, "viability hit class": "reduced viability", "caspase hit class": "no change"}
{"target": "PPP4R4", "reagent no.": 3, "viability relative to mock": 0.65, "caspase activity relative to mock": 1.73, "viability hit class": "no change", "caspase hit class": "no change"}
{"target": "PPP4R4", "reagent no.": 4, "viability relative to mock": 0.94, "caspase activity relative to mock": 1.61, "viability hit class": "no change", "caspase hit class": "no change"}
